This data set concerns rat engineered heart tissue (EHT). Kind of data set: Video-optical analysis of contractile parameters of spontaneously beating rat EHTs (50 nM epinephrine).

SMILES strings stand for the structures.

`CC(C)(C)c1ccc(C(=O)CCCN2CCC(OC(c3ccccc3)c3ccccc3)CC2)cc1` [Ebastine] gave a T2-effective concentrations of 100 fold FTPC.

(Values after publication PMC4160570, “Effects of proarrhythmic drugs on relaxation time and beating pattern in rat engineered heart tissue” (Basic Research in Cardiology, 2014).)
